Data reported in PubChem BioAssay AID493014 (National Center for Advancing Translational Sciences (NCATS), 2011).
The whole screen tested about 340,000 compounds, of which about 170 (0.05%) were called active. Inconclusive means that the source gave no clear call. Such entries were picked first, then a sample of the others. The call rests on the fitted dose curve; in most records, active means well fitted inhibition curve with a large enough effect in the signal ratio, with a control signal flat (not every such curve was filed as active); inconclusive means small, poorly fitted or top-dose-only effect, or effect the other way, or a change in a side signal; inactive means flat fitted curve, though single readings scatter; the % refers to the signal ratio. Where the call is inconclusive, the potency comes from a doubtful curve fit.

Experiment: qHTS Assay to Find Inhibitors of Chronic Active B-Cell Receptor Signaling;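 on activity change, negative = inhibition: plate controls were basal doxycycline-induced cells for no effect and cells given 10 µM MG132 for full effect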
Details: ABC-DLBCL IkBa-CBG/CBR reporter, luminescence ratio (green luciferase fused to IkBa over red control in TMD8 lymphoma cells), 4 h; activity change, negative = inhibition: at 46.1 µM (top of the series)
In short: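 TMD8 ABC-DLBCL cells carrying doxycycline-inducible green luciferase fused to IkappaBalpha plus unfused red luciferase were exposed to compounds (up to 46 uM) for 4 hrs at 37C. Activity came from the overlap-corrected green/red luminescence ratio.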
Potency means the concentration at half of the fitted maximal effect.

Structure (SMILES)	activity change, negative = inhibition	Potency
Cc1nnc(NC(=O)C(C)Sc2nnc(-c3ccco3)n2C(C)C)s1 (stereo not given)	inconclusive: -5.55%	
CC(=NCCc1c(C)[nH]c2ccc(OC(F)(F)F)cc12)C1=C(O)CC(c2ccccc2)CC1=O (stereo not given)	inconclusive: 0.738%	
Cc1ccc2c(c1)Oc1ccc([N+](=O)[O-])cc1C(=O)N2	inconclusive: -12.7%	
COc1ccc(N(C)S(=O)(=O)c2cccc(C(=O)Nc3cc(OC)ccc3OC)c2)cc1	inconclusive: -6.89%	
O=C(CCC(=O)OCC(=O)c1ccc(Br)cc1)NC1CCCCC1		inconclusive: 2.31 µM [falling, single point]
Cc1ccc(-n2nc(C)c(/C=N/NC(=O)c3cccs3)c2Cl)cc1	inconclusive: 8.42%	
CN(Cc1cnccn1)C(=O)c1cc(COc2cccc(C(F)(F)F)c2)on1	inconclusive: -36.9%	
Cn1cc([N+](=O)[O-])c(C(=O)Nc2sc3c(c2C#N)CCC3)n1		inconclusive: 5.01 µM [falling, full curve]
CC(=O)N1CCOc2ccc(S(=O)(=O)N(C)c3ccc(C)cc3)cc21	inconclusive: -2.6%	
Cc1ccc(CN2C(=O)CSC2c2ccc(F)cc2)cc1 (stereo not given)	inconclusive: 4.96%	
COC(=O)C(C)n1cnc2c(nnn2-c2cccc(Cl)c2)c1=O (stereo not given)	inconclusive: 12.7%	
CC(C)NC(=O)c1cc(-c2ccco2)on1		inconclusive: 35.5 µM [falling, single point]
COc1ccc(NCc2nnc(SCC#N)n2-c2ccccc2OC)cc1	inconclusive: -13.9%	
O=C(Cn1ncc2c([nH]c3ccccc32)c1=O)NCC1CCN(Cc2ccc(F)cc2)CC1		inconclusive: 0.316 µM [falling, full curve, poor fit]
O=S(=O)(N(Cc1ccccc1)[C@@H](CO)Cc1ccccc1)N(Cc1ccccc1)[C@@H](CO)Cc1ccccc1	inactive: -1.62%	
Cc1ccc(C(C)C)c(OCCNCc2ccccc2)c1	inactive: -2.48%	
O=C(CCn1cccc1)Nc1ccc(OC(F)(F)F)cc1	inconclusive: -0.445%	
CCOC(=O)C1CCN(c2nc3cc(OC)ccc3cc2C#N)CC1	inconclusive: 2.28%	
CCCCNC(=O)C1c2ccccc2C(=O)N(c2ccc(OC)cc2)C1c1ccc(OC)cc1 (stereo not given)		inconclusive: 10.3 µM [rising, partial curve, poor fit]
C(=C\c1ccco1)/C1=NN(c2ccccc2)C(c2ccco2)C1 (stereo not given)	inactive: 1.16%	

Structure (SMILES)	activity change, negative = inhibition	Potency
COc1ccccc1OCC(=O)Nc1ccc(N2CCCCC2)cc1	inconclusive: -0.777%	
OCCc1ccc(-c2ccc(Cl)cc2)o1	inconclusive: 0.653%	
CCc1ccc2oc(-c3cccc(N)c3)nc2c1		inconclusive: 35.5 µM [rising, single point]
Cc1cccc(C(=O)Nc2ncc(CN3CCOCC3)s2)c1	inconclusive: -10.8%	
COc1cc(OC)c(NC(=O)Cn2c(=O)oc3cc(S(=O)(=O)N4CCCC4)ccc32)cc1Cl	inactive: 0.174%	
OC[C@H]1O[C@@H](n2cnc3c(NC4CCCC4)nc(Cl)nc32)[C@H](O)[C@@H]1O		inconclusive: 0.82 µM [falling, full curve]
CCOc1ccc(NC(=O)CSc2nc(N)c(-c3ccccc3)c(=O)[nH]2)cc1	inconclusive: -12.2%	
CN(C)S(=O)(=O)c1cccc(N=c2scc(-c3ccc4c(c3)NC(=O)CO4)n2CC2CCCO2)c1 (stereo not given)	inactive: 1.37%	
O=C(O)c1cccnc1SC1CC(=O)N(CCc2ccccc2)C1=O (stereo not given)	inactive: -4.73%	
Cc1ccc(S(=O)(=O)Oc2ccc(/C=C(/NC(=O)c3ccccc3)C(=O)NCCCC(=O)O)cc2)cc1	inconclusive: 12.6%	
COCCNc1ccc(-c2n[nH]c(=O)c3ccccc23)cc1[N+](=O)[O-]	inconclusive: 1.16%	
CC1=C(C(=O)NCc2ccc(Cl)cc2)C2(CCCCC2)OC1=O	inactive: 8.36%	
O=C(Nc1ccc2c(c1)OCCO2)C1CCCN(S(=O)(=O)c2cccs2)C1 (stereo not given)		inconclusive: 35.5 µM [falling, partial curve, poor fit]
COc1ccc(-n2c(O)c(/C=N/NS(=O)(=O)c3cc(C)ccc3C)c3ccccc3c2=O)cc1OC	inconclusive: 5.17%	
O=C(Nc1ccc(S(=O)(=O)N2CCCC2)cc1)c1ccc([N+](=O)[O-])o1		inconclusive: 7.31 µM [falling, single point]
CC(C)C(=O)Nc1ccc([N+](=O)[O-])c(C(F)(F)F)c1	inactive: 7.86%	
Cc1cc(C)cc(-n2ncc3c2CCCC3NC(=O)c2cc(C)[nH]n2)c1 (stereo not given)	inconclusive: -19.7%	
O=[N+]([O-])c1cccc(-c2nc(Oc3ccc(Cl)cc3)c3ccccc3n2)c1	inconclusive: -1.2%	
Cn1ccnc1SCC(=O)Nc1ccccc1	inconclusive: -4.56%	
O=C(NCCc1ccccn1)c1nc(Cn2cc(Br)cn2)no1	inconclusive: 0.534%	

A few values from the entries so far:
Cc1ccc(-n2nc(C)c(/C=N/NC(=O)c3cccs3)c2Cl)cc1 – activity change, negative = inhibition: inconclusive: 8.42%
Cc1ccc(S(=O)(=O)Oc2ccc(/C=C(/NC(=O)c3ccccc3)C(=O)NCCCC(=O)O)cc2)cc1 – activity change, negative = inhibition: inconclusive: 12.6%
